The results in this text go back to US5610141 (dated 1997).

This data set in a line: general procedure: Fmoc solid-phase peptide synthesis; Fmoc-Lys(Boc)-Sasrin polymer; Fmoc-amino acid pentafluorophenyl esters; DCC/HOBt; PyBOP. The settings on record: whole synthesis, scale 0.6 mmol.

With (pGlu-Glu-Asp)2 -(E)-DHs (Lys)2, the crude mass entry is recorded as “yield 430 mg” and the “final purity (method not given)” value is over 95%.
